These are yes or no findings as the source states them, for the method shown. For some assays here: A result given as binding can be weak or reduced; the word gives no strength. For some assays here: In cells and extracts the contact can be indirect. For some assays here: Where a sequence is shown, tags or fusion partners need not be part of it.
B1: Myc-tagged Tbx5 deletion mutant (aa 1-100) (domain or fragment, UniProt P70326 1-100)
chain: MADTDEGFGLARTPLEPDSKDRSCDSKPESALGAPSKSPSSPQAAFTQQGMEGIKVFLHERELWLKFHEVGTEMIITKAGRRMFPSYKVKVTGLNPKTKY
B2: Myc-tagged Tbx5 deletion mutant (aa 1-300) (domain or fragment, UniProt P70326 1-300)
chain: MADTDEGFGLARTPLEPDSKDRSCDSKPESALGAPSKSPSSPQAAFTQQGMEGIKVFLHERELWLKFHEVGTEMIITKAGRRMFPSYKVKVTGLNPKTKYILLMDIVPADDHRYKFADNKWSVTGKAEPAMPGRLYVHPDSPATGAHWMRQLVSFQKLKLTNNHLDPFGHIILNSMHKYQPRLHIVKADENNGFGSKNTAFCTHVFPETAFIAVTSYQNHKITQLKIENNPFAKGFRGSDDLELHRMSRMQSKEYPVVPRSTVRHKVTSNHSPFSSETRALSTSSNLGSQYQCENGVSGP
B3: Myc-tagged Tbx5 deletion mutant (aa 1-400) (domain or fragment, UniProt P70326 1-400)
chain: MADTDEGFGLARTPLEPDSKDRSCDSKPESALGAPSKSPSSPQAAFTQQGMEGIKVFLHERELWLKFHEVGTEMIITKAGRRMFPSYKVKVTGLNPKTKYILLMDIVPADDHRYKFADNKWSVTGKAEPAMPGRLYVHPDSPATGAHWMRQLVSFQKLKLTNNHLDPFGHIILNSMHKYQPRLHIVKADENNGFGSKNTAFCTHVFPETAFIAVTSYQNHKITQLKIENNPFAKGFRGSDDLELHRMSRMQSKEYPVVPRSTVRHKVTSNHSPFSSETRALSTSSNLGSQYQCENGVSGPSQDLLPPPNPYPLAQEHSQIYHCTKRKDEECSSTEHPYKKPYMETSPSEEDTFYRSGYPQQQGLSTSYRTESAQRQACMYASSAPPSEPVPSLEDISCNT
B4: Myc-tagged Tbx5 deletion mutant (aa 1-200) (domain or fragment, UniProt P70326 1-200)
chain: MADTDEGFGLARTPLEPDSKDRSCDSKPESALGAPSKSPSSPQAAFTQQGMEGIKVFLHERELWLKFHEVGTEMIITKAGRRMFPSYKVKVTGLNPKTKYILLMDIVPADDHRYKFADNKWSVTGKAEPAMPGRLYVHPDSPATGAHWMRQLVSFQKLKLTNNHLDPFGHIILNSMHKYQPRLHIVKADENNGFGSKNTA
B5: Myc-tagged Tbx5 N-terminal deletion mutant (aa 119-519) (domain or fragment, UniProt P70326 119-518)
chain: NKWSVTGKAEPAMPGRLYVHPDSPATGAHWMRQLVSFQKLKLTNNHLDPFGHIILNSMHKYQPRLHIVKADENNGFGSKNTAFCTHVFPETAFIAVTSYQNHKITQLKIENNPFAKGFRGSDDLELHRMSRMQSKEYPVVPRSTVRHKVTSNHSPFSSETRALSTSSNLGSQYQCENGVSGPSQDLLPPPNPYPLAQEHSQIYHCTKRKDEECSSTEHPYKKPYMETSPSEEDTFYRSGYPQQQGLSTSYRTESAQRQACMYASSAPPSEPVPSLEDISCNTWPSMPSYSSCTVTTVQPMDRLPYQHFSAHFTSGPLVPRLAGMANHGSPQLGEGMFQHQTSVAHQPVVRQCGPQTGLQSPGGLQPPEFLYTHGVPRTLSPHQYHSVHGVGMVPEWSENS

Experiments:
Flag-tagged Tbx5 (mouse) = biological target: T1, Flag-tagged Tbx5 (mouse) (UniProt P70326); experiment: co-IP; COS-7 cells co-transfected; lysis buffer 20 mM Tris, 150 mM NaCl, 0.5% Triton X-100, 1 mM EDTA, pH 7.5; anti-Flag M2 agarose beads, 4 hours at 4°C; Western blot with anti-Myc
T1 sequence: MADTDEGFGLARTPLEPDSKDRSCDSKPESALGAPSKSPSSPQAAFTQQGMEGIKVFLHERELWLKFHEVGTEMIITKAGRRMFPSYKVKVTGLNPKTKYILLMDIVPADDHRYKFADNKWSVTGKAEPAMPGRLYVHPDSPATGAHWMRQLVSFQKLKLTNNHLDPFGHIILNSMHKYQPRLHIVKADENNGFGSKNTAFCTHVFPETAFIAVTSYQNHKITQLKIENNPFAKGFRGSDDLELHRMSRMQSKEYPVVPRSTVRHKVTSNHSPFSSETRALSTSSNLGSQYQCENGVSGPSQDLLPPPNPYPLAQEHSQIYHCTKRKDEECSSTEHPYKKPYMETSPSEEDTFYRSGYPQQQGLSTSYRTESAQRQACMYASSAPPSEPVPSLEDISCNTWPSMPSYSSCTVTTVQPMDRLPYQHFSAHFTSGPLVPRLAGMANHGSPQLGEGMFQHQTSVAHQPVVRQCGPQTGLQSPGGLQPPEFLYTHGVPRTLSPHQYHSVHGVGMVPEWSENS

[1] = biological target: T2, Myc-tagged Tbx5 (in vitro translated) (mouse) (UniProt P70326); experiment: native gel or EMSA; 32P-labeled TBE probe; Myc-Tbx5 with increasing amount of Flag-myocardin, both in vitro translated
T2 sequence: T1 sequence

Serum Response Factor = biological target: T3, Serum Response Factor (UniProt P11831); experiment: native gel or EMSA; 32P-labeled CArG probe; Flag-myocardin with or without SRF, with or without Myc-Tbx5; anti-SRF supershift
T3 sequence: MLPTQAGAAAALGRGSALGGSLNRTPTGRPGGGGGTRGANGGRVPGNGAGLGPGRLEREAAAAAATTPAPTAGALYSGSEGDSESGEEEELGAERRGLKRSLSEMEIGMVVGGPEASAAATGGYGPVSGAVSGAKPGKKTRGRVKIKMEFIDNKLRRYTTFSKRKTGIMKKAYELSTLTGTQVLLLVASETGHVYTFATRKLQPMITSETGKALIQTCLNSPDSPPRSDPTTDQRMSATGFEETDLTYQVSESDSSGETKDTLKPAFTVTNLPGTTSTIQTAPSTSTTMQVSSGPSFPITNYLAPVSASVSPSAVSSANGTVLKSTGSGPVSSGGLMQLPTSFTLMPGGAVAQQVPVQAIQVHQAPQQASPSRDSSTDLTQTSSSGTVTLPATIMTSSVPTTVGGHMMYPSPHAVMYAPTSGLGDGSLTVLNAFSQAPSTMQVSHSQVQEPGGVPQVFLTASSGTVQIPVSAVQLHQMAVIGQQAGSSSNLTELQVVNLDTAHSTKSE

Flag-tagged myocardin = experiment: co-IP; COS-7 cells co-transfected; lysis buffer 20 mM Tris, 150 mM NaCl, 0.5% Triton X-100, 1 mM EDTA, pH 7.5; anti-Flag M2 agarose beads, 4 hours at 4°C; Western blot with anti-Myc

Molecule | binding (Flag-tagged myocardin) | further results
Myc-tagged myocardin | – | binding (Flag-tagged Tbx5 (mouse)): binds
Flag-tagged myocardin (in vitro translated) | – | binding [1]: no binding; binding (Serum Response Factor): binds
B1 | binds | –
B2 | binds | –
B3 | binds | –
B4 | no binding | –
B5 | no binding | –

— PMC3163680
